Measurements reported in PubChem BioAssay AID1259405 (NCATS, 2018).

- Screen: 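Mouse-designed siRNAs used to find CHO productivity engineering targets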 (primary screen)
- Cells: Chinese hamster CHO-K1 ovary cells with stable secreted eGFP expression
- Knock-down reagent: single siRNA against mouse genes, 0.8 pmol siRNA per well (2 µl of 400 nM stock)
- Time to read-out: 3 days
- Read-out: 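Per-well intracellular GFP measured by laser scanning cytometry, plus viability from ATP luminescence, each relative to plate median of non-targeting control wells, in %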
- Reading the numbers: GFP, % of control: higher = more GFP per well, higher productivity; viability (ATP), % of control: higher = more viable cells (more ATP)
- Hit rule: 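a knock-down is called active if GFP reaches 120% or more of non-targeting control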
Here is an unselected part of about 50,000 deposited reagents. About 4,000 of them (8%) count as active. 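Mouse siRNA library applied to hamster cells; one well for each siRNA.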 Unmarked entries are inactive. The numbers tell different reagents against one gene apart. No sequences are given here.

no.	gene	siRNA no.	GFP, % of control	viability (ATP), % of control
1	Gpr146 (G protein-coupled receptor 146)	1	77.5	82.2
2	Gpr146 (G protein-coupled receptor 146)	2	99.6	117
3	Gpr146 (G protein-coupled receptor 146)	3	24.1	19.5
4	Gpr146 (G protein-coupled receptor 146)	4	104	78.6
5	Gpr146 (G protein-coupled receptor 146)	5	116	85.8
6	Gpr146 (G protein-coupled receptor 146)	6	101	53.1
7	Dglucy (D-glutamate cyclase)	1	89.9	51.8
8	Dglucy (D-glutamate cyclase)	2	77.9	78.7
9	Dglucy (D-glutamate cyclase)	3	109	103
10	Mettl3	1	97.4	64.1
11	Mettl3	2	64.5	49.2
12	Mettl3	3	53.4	56.8
13	Fkbp10 (FK506 binding protein 10)	1	82.9	80.1
14	Fkbp10 (FK506 binding protein 10)	2	31.8	31.9
15	Fkbp10 (FK506 binding protein 10)	3	74	82.7
16	Fbxl12 (F-box and leucine-rich repeat protein 12)	1	67.8	81
17	Fbxl12 (F-box and leucine-rich repeat protein 12)	2	31.9	21.2
18	Fbxl12 (F-box and leucine-rich repeat protein 12)	3	105	91.9
19	Arf1 (ARF GTPase 1)	1	58.1	67.5
20	Arf1 (ARF GTPase 1)	2	54.7	57.1
21	Arf1 (ARF GTPase 1)	3	51.8	74.7
22	Ap1s3 (adaptor-related protein complex AP-1, sigma 3)	1	79.1	70.5
23	Ap1s3 (adaptor-related protein complex AP-1, sigma 3)	2	90.7	98.5
24	Ap1s3 (adaptor-related protein complex AP-1, sigma 3)	3	87	73.9
25	Gpx3 (glutathione peroxidase 3)	1	123 (active)	98.9
26	Gpx3 (glutathione peroxidase 3)	2	70	75.3
27	Gpx3 (glutathione peroxidase 3)	3	60.6	82.5
28	Ttc7 (tetratricopeptide repeat domain 7)	1	47.6	41.6
29	Ttc7 (tetratricopeptide repeat domain 7)	2	73.5	104
30	Ttc7 (tetratricopeptide repeat domain 7)	3	41.5	56.3
31	Mxra7 (matrix-remodelling associated 7)	1	17.5	23.7
32	Mxra7 (matrix-remodelling associated 7)	2	104	79.2
33	Mxra7 (matrix-remodelling associated 7)	3	74	79.6
34	Vmn1r220 (vomeronasal 1 receptor 220)	1	46.5	52.1
35	Vmn1r220 (vomeronasal 1 receptor 220)	2	69.2	78.8
36	Vmn1r220 (vomeronasal 1 receptor 220)	3	60.8	75.3
37	Kcns3	1	103	89.1
38	Kcns3	2	65.3	49.8
39	Isg20 (interferon-stimulated protein)	1	58.3	77.1
40	Isg20 (interferon-stimulated protein)	2	44.9	54.3
41	Isg20 (interferon-stimulated protein)	3	108	65.4
42	Or14a258 (olfactory receptor family 14 subfamily A member 258)	1	85	62.2
43	Or14a258 (olfactory receptor family 14 subfamily A member 258)	2	71.8	56.9
44	Or14a258 (olfactory receptor family 14 subfamily A member 258)	3	113	74.6
45	Gnb5 (guanine nucleotide binding protein (G protein), beta 5)	1	143 (active)	88.1
46	Gnb5 (guanine nucleotide binding protein (G protein), beta 5)	2	103	78.6
47	Gnb5 (guanine nucleotide binding protein (G protein), beta 5)	3	23	19.7
48	Gzmc (granzyme C)	1	96.6	58.8
49	Gzmc (granzyme C)	2	29.9	54.2
50	Gzmc (granzyme C)	3	92.1	79.8
51	Gnl2 (guanine nucleotide binding protein nucleolar 2)	1	93.1	92.3
52	Gnl2 (guanine nucleotide binding protein nucleolar 2)	2	77.6	75.6
53	Gnl2 (guanine nucleotide binding protein nucleolar 2)	3	92.3	94.9
54	Phldb2 (pleckstrin homology like domain, family B, member 2)	1	56.9	55.8
55	Phldb2 (pleckstrin homology like domain, family B, member 2)	2	50.1	90
56	Phldb2 (pleckstrin homology like domain, family B, member 2)	3	84.2	37.1
57	Zbtb22 (zinc finger and BTB domain containing 22)	1	129 (active)	56
58	Zbtb22 (zinc finger and BTB domain containing 22)	2	98.6	83.2
59	Zbtb22 (zinc finger and BTB domain containing 22)	3	99.4	92.9

An excerpt taken from the entries so far:
no.	gene	siRNA no.	GFP, % of control	viability (ATP), % of control
38	Kcns3	2	65.3	49.8
39	Isg20 (interferon-stimulated protein)	1	58.3	77.1
40	Isg20 (interferon-stimulated protein)	2	44.9	54.3
41	Isg20 (interferon-stimulated protein)	3	108	65.4
42	Or14a258 (olfactory receptor family 14 subfamily A member 258)	1	85	62.2
